Reference: US10829530B2, “Analogues of VDAC1-derived peptides” (B. G. NEGEV TECHNOLOGIES AND APPLICATIONS LTD., AT …, priority 2015, dated 2020)
Part of at least one peptide drawing is inferred or uncertain, most often the ends.

Test system: U-87MG cells
Test: Intracranial-orthotopic U-87MG xenograft in nude mice (MRI tumor volume, survival)
Format: in vivo, mouse
Conditions: 10 mg/Kg i.v., Kaplan-Meier

In the case of `CC[C@H](C)[C@H](NC(=O)[C@H](Cc1ccc(O)cc1)NC(=O)[C@@H]1CCCN1C(=O)[C@H](CCCNC(=N)N)NC(=O)[C@H](Cc1c[nH]cn1)NC(=O)[C@@H](CO)NC(=O)[C@@H](Cc1c[nH]c2ccccc12)NC(=O)[C@H](NC(=O)[C@@H](Cc1c[nH]c2ccccc12)NC(=O)[C@@H](CCC(=O)O)NC(=O)[C@@H](CCCCN)NC(=O)[C@@H](CCCCN)NC(=O)[C@@H](CC(C)C)NC(=O)[C@@H](CCC(=O)O)NC(=O)[C@H](NC(=O)[C@@H](C)NC(=O)[C@H](NC(=O)[C@@H](CC(N)=O)NC(=O)[C@@H](CC(C)C)NC(=O)[C@@H](C)NC(=O)[C@@H](Cc1c[nH]c2ccccc12)NC(=O)[C@H](NC(=O)[C@@H](C)NC(=O)CNC(=O)[C@@H](CC(N)=O)NC(=O)[C@@H](CO)NC(=O)[C@@H](CC(N)=O)NC(=O)[C@@H](CCCCN)NC(=O)[C@@H](Cc1c[nH]c2ccccc12)NC(=O)[C@H](NC(=O)[C@@H](Cc1c[nH]c2ccccc12)NC(=O)[C@H](N)CCCCN)[C@H](C)O)[C@H](C)O)C(C)C)[C@H](C)O)[C@H](C)O)C(=O)N[C@@H](C)C(=O)N[C@@H](Cc1c[nH]cn1)C(=O)O` [Retro-Tf-D-LP4, D-Lys-D-Trp-D-Thr-D-Trp-D-Lys-D-Asn-D-Ser-D-Asn-D-Gly-D-Ala-D-Thr-D-Trp-D-Ala-D-Leu-D-Asn-D-Val-D-Ala-D-Thr-D-Glu-D-Leu-D-Lys-D-Lys-D-Glu-D-Trp-D-Thr-D-Trp-D-ser-His-Arg-Pro-Tyr-Ile-Ala-His], the “mice with survival prolonged over the 35 days of untreated mice” value is reported as 40%.
